Test results taken from article PMC10111675.
Results are given in words; binding and its absence hold for the method and conditions named. Binding seen in cells or lysates may run through a third protein. Some results given as binding are weak or reduced against the parent protein; the word gives no strength. Sequences can lack the tags named with a protein.

Sequences of proteins named here, by UniProt entry; tags and fusion partners are left off.
UniProt Q9JMB7: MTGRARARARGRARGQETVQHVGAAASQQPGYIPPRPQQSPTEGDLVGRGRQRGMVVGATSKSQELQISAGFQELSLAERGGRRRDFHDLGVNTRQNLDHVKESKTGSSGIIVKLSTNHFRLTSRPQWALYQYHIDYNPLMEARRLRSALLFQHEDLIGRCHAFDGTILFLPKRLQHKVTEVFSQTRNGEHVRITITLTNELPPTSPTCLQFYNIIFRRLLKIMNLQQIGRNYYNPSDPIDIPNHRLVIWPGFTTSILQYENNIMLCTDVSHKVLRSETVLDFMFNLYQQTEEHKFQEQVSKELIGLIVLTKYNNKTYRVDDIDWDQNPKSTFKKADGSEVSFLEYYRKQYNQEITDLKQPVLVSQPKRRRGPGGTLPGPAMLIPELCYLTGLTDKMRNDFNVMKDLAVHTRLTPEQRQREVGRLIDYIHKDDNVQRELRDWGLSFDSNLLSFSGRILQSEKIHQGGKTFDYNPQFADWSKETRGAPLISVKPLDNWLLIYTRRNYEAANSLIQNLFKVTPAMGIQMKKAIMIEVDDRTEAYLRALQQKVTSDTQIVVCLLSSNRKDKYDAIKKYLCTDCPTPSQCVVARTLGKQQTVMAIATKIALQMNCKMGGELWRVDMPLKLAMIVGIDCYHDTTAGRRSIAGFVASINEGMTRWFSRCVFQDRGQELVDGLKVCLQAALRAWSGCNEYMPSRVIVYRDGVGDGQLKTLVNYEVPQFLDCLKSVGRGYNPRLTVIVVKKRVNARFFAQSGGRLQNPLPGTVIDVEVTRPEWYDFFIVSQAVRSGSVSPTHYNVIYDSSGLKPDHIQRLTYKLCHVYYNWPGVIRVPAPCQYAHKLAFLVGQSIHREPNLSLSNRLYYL

Biological target: T1, HA-tagged Ck137956 truncation: middle part of the C-terminal region (298–447 aa) (mouse) (UniProt B1AYM9)
T1 sequence: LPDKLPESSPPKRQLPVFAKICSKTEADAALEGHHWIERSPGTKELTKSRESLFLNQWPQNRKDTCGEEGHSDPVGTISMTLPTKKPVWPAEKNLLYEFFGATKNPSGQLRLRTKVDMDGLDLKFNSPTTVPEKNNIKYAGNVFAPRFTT
Assay: co-IP; HA-tagged Ck137956 (or truncations) and Flag-tagged Miwi (or truncations) co-transfected in HEK-293 T cells, 48 h; lysates with anti-HA Magnetic Beads or anti-DYKDDDDK Resin 12 h at 4 °C; reciprocal; immunoblot

binding: binds
Substance: Flag-tagged Miwi (from UniProt Q9JMB7 1-862)
